## Results of single-concentration screens

Data taken from ChEMBL document CHEMBL3988442, “University of Dundee, Small-Polar-MMV Screening Library” (2021).

A: 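Whole-parasite assay of Trypanosoma brucei over 72 hours; the read-out is not stated. Compounds at 30 µM. Higher reads as stronger inhibition (inferred: compounds with an IC50 in retests scored well above the rest). Values scatter widely below zero; nearly all retest evidence comes from the higher of the two concentrations used. About 64,000 compounds were tested under these conditions; 1.5% (about 940) showed 50% or more at least once.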
B: 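Assay of Toxoplasma gondii numbers, read through their beta-galactosidase reporter with a colour substrate. Tested at 10 µM. Higher reads as fewer parasites (inferred from which compounds were picked for retests). About 67,000 compounds were tested under these conditions; 0.38% (about 260) showed 50% or more at least once.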

The filed quantity is “Percent Effect” (%). How 0% and 100% were set is not recorded. Most values in the screen are low, and negative values occur. This is an unselected part of the compounds tested.

- NC(=O)c1ccn(COc2ccccc2Cl)n1 | A: -5.999%; B: 10.82%
- COc1cccc(Cc2nnc(SCCS(C)(=O)=O)o2)c1 | A: 12.95%; B: 2.558%
- N#Cc1ccc(N2CCN(c3nccs3)CC2)nc1 | A: -30.15%; B: 6.923%
- CN(CC(=O)N1CCCC1c1cnn(C)c1)c1ccc(Cl)cn1 (configuration not stated) | A: -36.01%; B: -0.6905%
- CC(C)(NS(C)(=O)=O)C(=O)NCc1cccc(Br)c1 | A: -51.15%; B: -2.497%
- COc1cccc(N2CC3(CCN(c4ccncn4)C3)CC2=O)c1 (configuration not stated) | A: -77.25%; B: 5.079%
- CC(C)(C)c1cnc(CN2C(=O)CC3(CCSC3)C2=O)o1 (configuration not stated) | A: -30.86%; B: -1.154%
- CC(C)N(C)S(=O)(=O)c1ccc2c(c1)CCN(C(=O)c1cccnn1)C2 | A: -37.42%; B: -2.031%
- Cc1ccc2nc(C)cc(C(=O)N[C@H]3COC[C@@H]3N3CCOCC3)c2c1 | A: -9.533%; B: -5.746%
- Cc1nc2cc(F)cc(C(=O)N3CCN(CCO)CC3)c2nc1C | A: -29.94%; B: 1.125%
- CC(C)c1nc(N2CC[C@@H](N(C)CCc3ccccn3)[C@H](O)C2)no1 | A: -17.63%; B: -6.466%
- Cc1nc(CN2CCOC(CNc3cccnn3)C2)oc1C (configuration not stated) | A: -46.43%; B: -7.065%
- COCCC(=O)N1CCC(c2nc(O)cc(-c3ccncc3)n2)C1 (configuration not stated) | A: -19.35%; B: 9.267%
- CCOCC(=O)Nc1ncc(I)cc1C | A: -26.33%; B: -10.83%
- CN1CC(=O)N(c2ccccc2)CC12CCN(CC1CC1)C2.O=C(O)C(F)(F)F.O=C(O)C(F)(F)F (configuration not stated) | A: -5.939%; B: -13.68%
- Cc1nc(C2CCCN(C(=O)c3cccc4c3OCO4)C2)no1 (configuration not stated) | A: -15.26%; B: 2.756%
- Cc1cc(C(=O)O)ccc1NS(=O)(=O)c1c(C)nn(C(C)C)c1C | A: -47.16%; B: 0.1297%
- COc1ccc(CN2CCC=C(C(C)NC(C)=O)C2)cc1 (configuration not stated) | A: -34.15%; B: 9.049%
- CC[C@H]1N(Cc2ccco2)CCC[C@]12CCC(=O)N2C | A: -9.676%; B: 8.807%

Once more, the final 2:

| SMILES | A | B |
|---|---|---|
| `COc1ccc(CN2CCC=C(C(C)NC(C)=O)C2)cc1` (configuration not stated) | -34.15% | 9.049% |
| `CC[C@H]1N(Cc2ccco2)CCC[C@]12CCC(=O)N2C` | -9.676% | 8.807% |